Test: Endogenous plasma carnitine profiling by tandem mass spectrometry in CFS patients and healthy controls
Set-up: species or system human

hydroxy-oleyl-L-carnitine [C18:1-OH]
mean acylcarnitine concentration in normal patients as % of that of the CFS patients: 78.1%

palmitoleyl-L-carnitine [C16:1]
mean acylcarnitine concentration in CFS patients as % of that of the healthy controls: 80.5%

C[N+](C)(C)C[C@@H](CC(=O)[O-])OC(=O)CCCCCCCCCCC(=O)O [C12DC, dodecanedioyl-L-carnitine]
mean acylcarnitine concentration in normal patients as % of that of the CFS patients: 72.4%

octenoyl-L-carnitine [C8:1]
mean acylcarnitine concentration in CFS patients as % of that of the healthy controls: 74.2%

Reference: US20120214870A1, “METHODS FOR DIAGNOSIS AND TREATMENT OF CHRONIC FATIGUE SYNDROME” (UNIVERSITY OF SOUTH AUSTRALIA, priority 2009, published 2012)
